From patent US20080241258A1, “TREATMENT OF DISEASES WITH NANOPARTICLES HAVING A SIZE-DEPENDENT CYTOTOXICITY” (priority 2007, published 2008)
Entries after “also recorded” stand apart in the source; their conditions may differ.

System: HeLa cells
Assay: Annexin V/propidium iodide double staining and flow cytometry (live, apoptotic, necrotic cells)
Assay type: cell-based
Conditions: HeLa log phase, 6, 12, 18 and 24 hours; staurosporine 2 μM, Au1.2TPPMS 140 μM, Au1.4TPPMS 110 μM

CN[C@@H]1C[C@H]2O[C@@](C)([C@@H]1OC)n1c3ccccc3c3c4c(c5c6ccccc6n2c5c31)C(=O)NC4 [staurosporine]
kind of cell death (apoptosis versus necrosis): predominantly apoptosis; also recorded: mostly apopotosis
